Laboratory results taken from article PMC5677968, “Familial STAG2 germline mutation defines a new human cohesinopathy” (NPJ Genomic Medicine, 2017).
No constants are given. Whether binding was seen depends on the method and setting. Binding seen in cells or lysates may run through a third protein. A result given as binding can be weak or reduced; the word gives no strength. Where a sequence is shown, tags or fusion partners need not be part of it.

Molecular target: T1, Myc-STAG2 WT (human) (UniProt Q8N3U4)
T1 sequence: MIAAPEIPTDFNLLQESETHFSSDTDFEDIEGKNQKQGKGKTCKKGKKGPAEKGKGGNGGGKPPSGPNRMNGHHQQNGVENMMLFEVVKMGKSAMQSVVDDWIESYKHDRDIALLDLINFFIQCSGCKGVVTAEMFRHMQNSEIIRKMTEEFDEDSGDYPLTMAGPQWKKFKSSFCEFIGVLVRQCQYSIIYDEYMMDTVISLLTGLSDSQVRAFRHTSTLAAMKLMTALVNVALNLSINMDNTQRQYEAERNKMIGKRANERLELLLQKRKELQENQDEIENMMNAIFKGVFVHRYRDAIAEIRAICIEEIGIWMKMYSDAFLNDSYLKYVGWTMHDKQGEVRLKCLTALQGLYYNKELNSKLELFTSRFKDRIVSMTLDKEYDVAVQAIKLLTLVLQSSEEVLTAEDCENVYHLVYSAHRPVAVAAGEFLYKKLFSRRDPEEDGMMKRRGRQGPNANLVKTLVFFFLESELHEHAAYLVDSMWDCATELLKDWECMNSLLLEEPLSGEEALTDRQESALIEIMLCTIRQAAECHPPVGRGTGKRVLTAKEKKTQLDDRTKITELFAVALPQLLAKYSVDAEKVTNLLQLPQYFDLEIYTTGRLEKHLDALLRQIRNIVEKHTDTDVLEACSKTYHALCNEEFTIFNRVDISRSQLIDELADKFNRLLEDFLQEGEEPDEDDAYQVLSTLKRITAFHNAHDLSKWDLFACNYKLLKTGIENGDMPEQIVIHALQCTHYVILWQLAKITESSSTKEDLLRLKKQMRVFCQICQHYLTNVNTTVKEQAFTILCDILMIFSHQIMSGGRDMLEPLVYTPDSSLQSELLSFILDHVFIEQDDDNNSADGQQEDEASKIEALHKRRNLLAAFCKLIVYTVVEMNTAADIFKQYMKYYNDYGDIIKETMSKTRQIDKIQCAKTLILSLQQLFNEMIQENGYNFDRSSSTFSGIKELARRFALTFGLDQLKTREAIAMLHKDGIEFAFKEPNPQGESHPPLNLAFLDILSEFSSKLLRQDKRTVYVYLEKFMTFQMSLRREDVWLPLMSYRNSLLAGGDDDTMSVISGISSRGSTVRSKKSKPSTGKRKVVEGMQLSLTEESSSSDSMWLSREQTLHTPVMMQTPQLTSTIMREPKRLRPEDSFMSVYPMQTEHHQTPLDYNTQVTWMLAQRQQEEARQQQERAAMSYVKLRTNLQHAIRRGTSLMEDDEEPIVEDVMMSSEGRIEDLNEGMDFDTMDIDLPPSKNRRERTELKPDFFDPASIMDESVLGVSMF
Experiment: co-IP; anti-Myc beads, lysates of HeLa Tet-On cells transfected with Myc-STAG2 WT or mutants; 3 h at 4 °C; washes with lysis buffer containing 200 mM NaCl; blots for endogenous proteins

binding: binds
Substance: endogenous SMC1 (human (endogenous in HeLa))
